# Library screen at single concentrations

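Whole-parasite assay of Trypanosoma brucei over 72 hours; the read-out is not stated. Tested at 30 µM. Higher reads as stronger inhibition (inferred: compounds with an IC50 in retests scored well above the rest). Values scatter widely below zero; nearly all retest evidence comes from the higher of the two concentrations used. About 64,000 compounds were tested under these conditions; 1.5% (about 940) showed 50% or more at least once.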

The filed quantity is “Percent Effect” (%). The controls that fix the scale are not given in the record; negative values are as filed. The compounds are a random part of those screened.

compound,effect
CCOc1ccccc1N(C)C(=O)c1ccc(Cl)cn1,-42.42
CN(C)[C@@H]1CN(C(=O)COc2cccc(F)c2)C[C@H]1O,22.25
CCN(CCC(=O)OC)C(=O)c1cccc(Cn2nc(C)cc2C)c1,-20.29
N#CC1(C(=O)N2C[C@H](Nc3ncccn3)[C@@H](C3CC3)C2)CCOCC1,-23.49
Cc1ccc(C2COCCN2C(=O)c2ccc(CN(C)C)cc2)o1 (centres undefined),-18.62
O=C(CCc1nnc(-c2ccccc2)o1)N1CCN(CC2CC2)CC1,-11.02
O[C@H]1CN(Cc2ccc3c(c2)OCCO3)CC[C@@]12CCCO2,-42.42
Nc1ccnc(-c2cc(NC3CCNCC3)nc3[nH]ccc23)c1,98.23
CC(=O)N1N=C(c2ccco2)OC1C(=O)N(CC(C)C)CC(C)C (centres undefined),65.41
CC(=O)N1Cc2ccccc2CC1C(=O)Nc1ccc(C)cn1 (centres undefined),-123.2
CC(=O)Nc1nc(-c2ccccc2)c[nH]1,-2.447
CCSc1cc(C(=O)NC2CCN(C(=O)c3ccccc3)CC2)ccn1,-15.17
O=C(c1ccc[nH]1)N1CCCC1c1nc(-c2ccccc2)n[nH]1 (centres undefined),-14.54
COCC1CN(C(=O)Cc2cccs2)Cc2c1cnn2C (centres undefined),-26.18
Cc1nn(C)cc1C(=O)N1CCCN(C2Cc3ccccc3C2)CC1,-115.1
CCC(=O)N1CCCC1c1ccsc1 (centres undefined),7.448
CN(C)c1nc(NCCc2ccnn2C)ncc1F,-56.38
CS(=O)(=O)Nc1ccn(Cc2ccc(Cl)cc2)n1,-14.28
CCCc1nc(CN(CC)C(=O)c2ccc(S(C)(=O)=O)cc2)no1,9.39
O=C(O)c1ccn(-c2ccccc2NS(=O)(=O)c2cccc(Cl)c2F)n1,-24.96
CCS(=O)(=O)N1CCCC2(COCCN(c3nncs3)C2)C1 (centres undefined),-7.977
CSCCNC(=O)c1ccc(OC2CCN(CC(C)(C)C)CC2)c(Cl)c1,7.583
Cc1c[nH]c(C2COCCN2C(=O)c2ccc(=O)[nH]n2)n1 (centres undefined),-8.492
Cc1ccc(CN2Cc3nnn(C)c3C(COCc3ccccn3)C2)s1.O=C(O)C(F)(F)F.O=C(O)C(F)(F)F (centres undefined),-44.85
O=C(O)C1(Cc2ccccc2Cl)CCN(c2ncccn2)CC1,-19.41
CCn1ncnc1CN(C/C=C/c1ccccc1)CCOC,-9.148
CC(NCc1c(C(C)C)nn(C)c1N1CCOCC1)C(N)=O (centres undefined),12.44
C=C(C)CN1CCC(NC(=O)NCCc2cccc(C(N)=O)c2)CC1,-19.77
Cc1nn(CC(=O)N2CCN(c3ccccc3F)CC2)c(C)c1Cl,7.436
CS(=O)(=O)NCc1nnc2n1CCN(Cc1cccs1)CC2.O=C(O)C(F)(F)F,-150.1
CCC[C@@H]1CN(Cc2ccccc2-c2ccco2)C[C@H]1NC(C)=O,-50.85
Cc1ccc2cc(C(=O)N3CCN(C(=O)c4ccoc4)CC3)[nH]c2c1,-18.35
O=c1c(-c2ccnc(NC3CCOCC3)n2)cnc2sc(Cl)cn12,-26.55
CNS(=O)(=O)c1ccc(CNC(=O)N(CC(C)C)C(C)C)cc1,-16.58
COc1ccc(C)cc1CN(Cc1nc(C)c(C)o1)C1CCN(C)C1 (centres undefined),82.74
O=C(COCc1ccccc1)N1CCN(Cc2ccccc2F)C(=O)C1,0.8723
COC(=O)CNC(=O)CCc1cc(Cl)cs1,30.07
COc1ccc(OC)c(CN(Cc2ccco2)Cc2[nH]cnc2C)c1.O=C(O)CC(O)(CC(=O)O)C(=O)O,-3.501
Cc1nc2ccccc2n1Cc1cc(C(=O)NC2CCOC2)no1 (centres undefined),-27.63
CN(C)CCN(C)c1cc(N2CCN(c3ccccn3)CC2)ncn1,-17.7
CCc1nnc(N2C[C@@H](NC(C)=O)[C@H](c3ccc(C)o3)C2)s1,-17.19
CCc1nc(C)c(CNC(=O)CCCN2CCCCC2)s1,-37.82
O=S(=O)(NCCc1nc(-c2cccnc2)n[nH]1)NCc1ccccc1,-84.2
Cc1cc2n(n1)CC(CNCc1ccccc1Cn1cccn1)CN2 (centres undefined),-12.95
COC(=O)CSCc1nc(-c2ccc(Cl)cc2)no1,-69.69
CNS(=O)(=O)c1ccc(C(=O)N2CCCC2c2ccncc2)o1 (centres undefined),-13.34
CC(=O)Nc1ccc(CNC(C)c2c(C)nn(C)c2C)cc1 (centres undefined),-22.95
CC(C)c1nc2c(n1C)CCN(Cc1nc(-c3cccs3)no1)C2,9.593
CCOCC(=O)N1CCCn2c(nnc2Cn2cccc2)C1,-58.28
CNc1cc(N2CCCC2CNCc2cccc(C#N)c2)ncn1 (centres undefined),-5.405
CSc1nccc(NCC2CNCCOC2)n1 (centres undefined),-16.11
O=C(c1ccnnc1)N1CCC2(CC1)CCN(C(=O)c1cccnc1)C2,-45.16
Cc1cc(S(=O)(=O)NCC(C)(O)CN(C)C)c(F)cc1F (centres undefined),-15.78
Cc1cc(CNC(=O)NC(C)c2ccccc2)no1 (centres undefined),-24.31
CCS(=O)(=O)N1CCC2(CCCN(c3ncc(F)cn3)C2)C1 (centres undefined),-30.34
CN(C)Cc1cn(-c2ccccc2C(=O)NCCC2CCCN2C)cn1 (centres undefined),-38.38
CCN(C)CC1CCN(C(=O)Nc2ccc(-c3cc[nH]n3)cc2)C1 (centres undefined),-65.17
Cc1cc(C)n(-c2nc(NCCCO)c3c4c(sc3n2)CCCC4)n1,-50.73
[H][C@]12CC[C@]([H])(CN(S(=O)(=O)c3cccnc3)C1)N(Cc1ccccn1)C2,4.084
COc1ccc(OC)c(NC(=O)NCC(O)c2ccc(F)c(F)c2)c1 (centres undefined),14.6
CN(C)c1ncccc1NC(=O)COC1CCCC1,-31.96
O=C(Cn1cc(-n2cccc2)cn1)NCC(F)(F)F,-10.2
Cc1nc(NC(=O)NCc2nc3cccc(C)c3n2C)oc1C,-58.74
O=C(O)C(F)(F)F.O=C(O)C(F)(F)F.[H][C@@]12CCCO[C@]1([H])[C@H](N(C)Cc1ccco1)CN(Cc1ccc(F)cc1)C2,-2.104
COCc1ccc(C(=O)N2CCN(CCS(C)(=O)=O)CC2)cc1,-16.16
Cl.OC[C@H]1CC[C@]2(CC1)CN(Cc1ccccn1)Cc1ccccc1O2,7.672
Cc1ccc(Oc2ncccc2CNS(=O)(=O)N2CCOCC2)cn1,-2.568
O=C(O)C(F)(F)F.O=C(O)C(F)(F)F.[H][C@@]12CN(CC3CC3)C[C@]1([H])OCCN2c1ncccn1,-33.68
COc1cc(C#N)ccc1OCC(=O)NS(=O)(=O)c1ccccc1,-13.76

Repeated from the top, 7 entries:

| compound | effect |
|---|---|
| `CCOc1ccccc1N(C)C(=O)c1ccc(Cl)cn1` | -42.42 |
| `CN(C)[C@@H]1CN(C(=O)COc2cccc(F)c2)C[C@H]1O` | 22.25 |
| `CCN(CCC(=O)OC)C(=O)c1cccc(Cn2nc(C)cc2C)c1` | -20.29 |
| `N#CC1(C(=O)N2C[C@H](Nc3ncccn3)[C@@H](C3CC3)C2)CCOCC1` | -23.49 |
| `Cc1ccc(C2COCCN2C(=O)c2ccc(CN(C)C)cc2)o1` (centres undefined) | -18.62 |
| `O=C(CCc1nnc(-c2ccccc2)o1)N1CCN(CC2CC2)CC1` | -11.02 |
| `O[C@H]1CN(Cc2ccc3c(c2)OCCO3)CC[C@@]12CCCO2` | -42.42 |

Measurements from “University of Dundee, Small-Polar-MMV Screening Library” (2021), ChEMBL document CHEMBL3988442.